{"sequences": {"note": "The chains behind the UniProt entries cited, without tags or fusion partners.", "UniProt Q8S307": "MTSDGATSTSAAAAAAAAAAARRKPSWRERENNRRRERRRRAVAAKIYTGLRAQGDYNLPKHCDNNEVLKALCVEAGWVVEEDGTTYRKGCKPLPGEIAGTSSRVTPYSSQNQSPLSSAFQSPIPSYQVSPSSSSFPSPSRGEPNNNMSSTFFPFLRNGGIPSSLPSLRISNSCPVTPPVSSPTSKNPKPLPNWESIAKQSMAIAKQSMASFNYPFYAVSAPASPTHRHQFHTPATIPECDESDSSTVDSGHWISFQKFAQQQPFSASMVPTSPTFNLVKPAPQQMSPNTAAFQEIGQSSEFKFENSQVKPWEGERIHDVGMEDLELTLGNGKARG"}, "source": "paper PMC9812374", "molecular_target": "BZR1-YFP (brassinazole-resistant 1 fused to yellow fluorescent protein) (Arabidopsis) (UniProt Q8S307)", "assay": "affinity purification with mass spectrometry; lysates of 35S::BZR1-YFP and 35S::GFP seedlings on anti-GFP agarose beads, 4°C, 4 hours; 1% Triton X-100, 150 mM NaCl, 50 mM tris-HCl pH 7.5, 5 mM EDTA; LC-MS/MS of the bound proteins", "note": "Results are given in words; binding and its absence hold for the method and conditions named. In cells and extracts the contact can be indirect. Here binding means that the protein was enriched with, or labelled near, the bait; the list need not be complete.", "data": [{"binder": "GRF4 (general regulatory factor 4), endogenous (protein, UniProt P46077 1-267) MAAPPASSSAREEFVYLAKLAEQAERYEEMVEFMEKVAEAVDKDELTVEERNLLSVAYKNVIGARRASWRIISSIEQKEESRGNDDHVTTIRDYRSKIESELSKICDGILKLLDTRLVPASANGDSKVFYLKMKGDYHRYLAEFKTGQERKDAAEHTLTAYKAAQDIANAELAPTHPIRLGLALNFSVFYYEILNSPDRACNLAKQAFDEAIAELDTLGEESYKDSTLIMQLLRDNLTLWTSDMQDESPEEIKEAAAPKPAEEQKEI", "values": [{"measurement": "binding", "value": "binds"}]}]}
